PubChem BioAssay AID743121 – NCATS | 2013
The deposit covers about 26,000 reagents; shown is a part drawn at random. 167 of all reagents (0.63%) count as active. 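Calls are per gene from RSA p-values that are not deposited; an individual active-marked siRNA can sensitise only weakly.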 Reagents against one gene are numbered here. Further read-outs or replicates are left out here.

- Purpose: 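Knock-downs that sensitise breast cancer cells to camptothecin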 (primary screen)
- Cell system: MDA-MB-231 cells, a human breast cancer line
- Reagent: single siRNA against human genes, 20 nM siRNA (0.8 pmol per well)
- Timing: 120 h (drug added 48 h after transfection, read 72 h later)
- Challenge: camptothecin 20 nM (about EC30) for 72 h; vehicle 0.1% DMSO in parallel plates
- Read-out: 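Cell viability by ATP luminescence (CellTiter-Glo) as % of non-targeting siRNA wells, and the log2 ratio of viability without drug over viability with camptothecin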
- Direction: log2 vehicle/camptothecin viability: higher = stronger sensitisation to camptothecin
- Hit rule: 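Active genes have an RSA gene-level p-value below 0.001, computed from the ratios of their separate siRNAs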

With MPP4 (MAGUK p55 scaffold protein 4) #1, what was measured?
log2 vehicle/camptothecin viability: -0.0481; outcome: inactive

Which result is listed for MPP4 (MAGUK p55 scaffold protein 4) #2?
log2 vehicle/camptothecin viability: 0.221; outcome: inactive

How did the screen score MPP4 (MAGUK p55 scaffold protein 4) #3?
log2 vehicle/camptothecin viability: -0.103; outcome: inactive

With CD40LG (CD40 ligand) #1, what was measured?
log2 vehicle/camptothecin viability: -0.497; outcome: inactive

What did the screen give for CD40LG (CD40 ligand) #2?
log2 vehicle/camptothecin viability: -0.2; outcome: inactive

For CD40LG (CD40 ligand) #3, what does the deposit list?
log2 vehicle/camptothecin viability: -0.233; outcome: inactive

With CD40LG (CD40 ligand) #4, what does the deposit list?
log2 vehicle/camptothecin viability: 0.18; outcome: inactive

For RBM14 (RNA binding motif protein 14) #1, what does the deposit list?
log2 vehicle/camptothecin viability: 0.0466; outcome: inactive

With RBM14 (RNA binding motif protein 14) #2, what was measured?
log2 vehicle/camptothecin viability: -0.339; outcome: inactive

For RBM14 (RNA binding motif protein 14) #3, what was measured?
log2 vehicle/camptothecin viability: -0.126; outcome: inactive

Which result is listed for RBM14 (RNA binding motif protein 14) #4?
log2 vehicle/camptothecin viability: 0.229; outcome: inactive

What is on record for OLFM2 (olfactomedin 2) #1?
log2 vehicle/camptothecin viability: -0.0833; outcome: inactive

With OLFM2 (olfactomedin 2) #2, what was measured?
log2 vehicle/camptothecin viability: 0.0633; outcome: inactive

How did the screen score OLFM2 (olfactomedin 2) #3?
log2 vehicle/camptothecin viability: -0.386; outcome: inactive

Which result is listed for OLFM2 (olfactomedin 2) #4?
log2 vehicle/camptothecin viability: -0.0983; outcome: inactive

With CTNNBIP1 (catenin beta interacting protein 1) #1, what was measured?
log2 vehicle/camptothecin viability: -0.144; outcome: inactive

Which result is listed for CTNNBIP1 (catenin beta interacting protein 1) #2?
log2 vehicle/camptothecin viability: 0.076; outcome: inactive

For CTNNBIP1 (catenin beta interacting protein 1) #3, what was measured?
log2 vehicle/camptothecin viability: -0.246; outcome: inactive

What did the screen give for CTNNBIP1 (catenin beta interacting protein 1) #4?
log2 vehicle/camptothecin viability: 0.174; outcome: inactive

How did the screen score OR8D2 (olfactory receptor family 8 subfamily D member 2) #1?
log2 vehicle/camptothecin viability: 0.124; outcome: inactive

What is on record for OR8D2 (olfactory receptor family 8 subfamily D member 2) #2?
log2 vehicle/camptothecin viability: -0.605; outcome: inactive

Which result is listed for OR8D2 (olfactory receptor family 8 subfamily D member 2) #3?
log2 vehicle/camptothecin viability: -0.173; outcome: inactive

Which result is listed for OR8D2 (olfactory receptor family 8 subfamily D member 2) #4?
log2 vehicle/camptothecin viability: -0.311; outcome: inactive

3 entries already listed, sorted by “log2 vehicle/camptothecin viability”, lowest first:
CD40LG (CD40 ligand) #3 | log2 vehicle/camptothecin viability: -0.233; outcome: inactive
CD40LG (CD40 ligand) #2 | log2 vehicle/camptothecin viability: -0.2; outcome: inactive
CD40LG (CD40 ligand) #4 | log2 vehicle/camptothecin viability: 0.18; outcome: inactive

More results:
How did the screen score GCK (glucokinase) #1?
log2 vehicle/camptothecin viability: 0.158; outcome: inactive

For GCK (glucokinase) #2, how do the results read?
log2 vehicle/camptothecin viability: 0.0135; outcome: inactive

With GCK (glucokinase) #3, what was measured?
log2 vehicle/camptothecin viability: -0.0655; outcome: inactive

With GCK (glucokinase) #4, how do the results read?
log2 vehicle/camptothecin viability: -0.263; outcome: inactive

With AKR1C4 (aldo-keto reductase family 1 member C4) #1, what does the deposit list?
log2 vehicle/camptothecin viability: -0.387; outcome: inactive

With AKR1C4 (aldo-keto reductase family 1 member C4) #2, what does the deposit list?
log2 vehicle/camptothecin viability: -0.435; outcome: inactive

For AKR1C4 (aldo-keto reductase family 1 member C4) #3, how do the results read?
log2 vehicle/camptothecin viability: 0.0459; outcome: inactive

For RRBP1 (ribosome binding protein 1) #1, what was measured?
log2 vehicle/camptothecin viability: -0.263; outcome: inactive

With RRBP1 (ribosome binding protein 1) #2, what does the deposit list?
log2 vehicle/camptothecin viability: -0.0882; outcome: inactive

What did the screen give for RRBP1 (ribosome binding protein 1) #3?
log2 vehicle/camptothecin viability: -0.0747; outcome: inactive

What is on record for RRBP1 (ribosome binding protein 1) #4?
log2 vehicle/camptothecin viability: -0.672; outcome: inactive

What is on record for RXRG (retinoid X receptor gamma) #1?
log2 vehicle/camptothecin viability: 0.385; outcome: inactive

Which result is listed for RXRG (retinoid X receptor gamma) #2?
log2 vehicle/camptothecin viability: -0.286; outcome: inactive

Which result is listed for RXRG (retinoid X receptor gamma) #3?
log2 vehicle/camptothecin viability: -0.0427; outcome: inactive

For RXRG (retinoid X receptor gamma) #4, what does the deposit list?
log2 vehicle/camptothecin viability: -0.191; outcome: inactive
